The source of these data is paper PMC7819943, “Rice protein-binding microarrays: a tool to detect cis-acting elements near promoter regions in rice”.

By UniProt entry, the sequences of proteins in these tests, tags left out.
UniProt Q0JBA9, entry or part of it: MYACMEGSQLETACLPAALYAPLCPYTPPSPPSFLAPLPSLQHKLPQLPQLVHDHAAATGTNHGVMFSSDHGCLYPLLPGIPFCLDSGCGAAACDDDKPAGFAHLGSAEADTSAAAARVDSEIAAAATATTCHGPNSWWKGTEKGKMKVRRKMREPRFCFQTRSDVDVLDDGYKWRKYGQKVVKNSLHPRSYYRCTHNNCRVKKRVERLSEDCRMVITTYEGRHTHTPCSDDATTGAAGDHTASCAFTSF

This is one part of the list.

The target in the experiment is OsWRKY34 (Oryza sativa, UniProt Q0JBA9 1-250). Kind of experiment: protein-binding microarray (RPBM); PBS, 2% BSA, 51.3 ng/ul salmon testes DNA, 50 uM zinc acetate, 200 nM TF, 25 C, 1 h; high values mean tight binding. The following applies: protein: recombinant; tags: N-terminal polyhistidine and DsRed monomer fusion (pET32a); label: CyDye5-dUTP incorporated in the synthesized complementary strand; 3' TTTTT single-stranded linker to array surface; dsDNA, one strand shown. The essentials:
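Binding signal is defined as the fluorescence intensity of each feature in arbitrary units, read on an Axon 4000B scanner. Transcription factors with N-terminal polyhistidine and DsRed fusions came from E. coli BL21-CodonPlus and were purified on Ni–NTA. They were incubated at 200 nM for 1 h at 25 °C on a custom Agilent array that had been made double-stranded with Cy5-dUTP, with 50 µM zinc acetate present, and the array was washed.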
Regarding “CGATGAATGTATGATTGGGGTATTGTCAGTGTCATATTATCGGAGTCACCTAGTGCAG”, the binding signal was 9180 fluorescence intensity (a.u.).
On to “GTTGTGTTGCCCGCTTGGAAAAATACCGACTTTTACATACCGGAGTCACCTAGTGCAG”, for which the binding signal is 9700 fluorescence intensity (a.u.).
As to “TTCATTAAACCAGCCAGATTTGCCTCTCCGATTGGCTGCTCGGAGTCACCTAGTGCAG”, the binding signal is 8550 fluorescence intensity (a.u.).
With “TGGGTCATCTCATTACACCCGTCACGGATGAGATATTGTCCGGAGTCACCTAGTGCAG”, the binding signal was 8290 fluorescence intensity (a.u.).
Consider “CACCGACCCGCGCGCCGCGCCCACCTCCAGGCCGTCGAACCGGAGTCACCTAGTGCAG”, for which the binding signal is 9690 fluorescence intensity (a.u.).
Turning to “CAGATGAACTACACTTGTTCTATTTTCTTTGGGTTGCTTTCGGAGTCACCTAGTGCAG”, the binding signal was 8930 fluorescence intensity (a.u.).
As to “ACCATCACCGCCGTCGCGTCACCCGTCGCCGGCCGCCGACCGGAGTCACCTAGTGCAG”, the binding signal is 8810 fluorescence intensity (a.u.).
With “TATTTTTTAATTGCTACGTTTTTTCCATTCGTGTGATTAACGGAGTCACCTAGTGCAG”, the binding signal is 11100 fluorescence intensity (a.u.).
Regarding “TATTTATTAACTTTGTCATATTTGTTCCATTTATACGACTCGGAGTCACCTAGTGCAG”, the binding signal was 10700 fluorescence intensity (a.u.).
In the case of “CCGTAGCATATGAGCCAACTCCATCCCATCACTTGCTTCCCGGAGTCACCTAGTGCAG” it was 9850 fluorescence intensity (a.u.); in that of “AATATAGGTTTAGTGGCATTTAACAACTCACGCTTGAATCCGGAGTCACCTAGTGCAG”, 8320 fluorescence intensity (a.u.).
For the sequence “GATTGGTTGTCATTCGGTCTCTTTTTCGTTTCTCGCATTACGGAGTCACCTAGTGCAG”, the binding signal was 12900 fluorescence intensity (a.u.).
For “GTTTACGGGTGGAATTTATAATTTGTTTTGTTATTAGTCCCGGAGTCACCTAGTGCAG”, the binding signal is 10300 fluorescence intensity (a.u.).
Consider “ATGCATTGACATACTAGTACCTTATACTACTCCTATGTGCCGGAGTCACCTAGTGCAG”, for which the binding signal is 10000 fluorescence intensity (a.u.).
For “CGCATAGTCGCAGCTCTTCTCTCTCTCGCTCGCTCGCTCGCGGAGTCACCTAGTGCAG” the value was 8870 fluorescence intensity (a.u.); for “TAGCTTTTTACTGTTGGCCATGATGGTTGTCATCTTGTTTCGGAGTCACCTAGTGCAG”, 12000 fluorescence intensity (a.u.); for “ATGCATGTACGCCCATGTTTAGTTCTAAACTTTTTCTTCGCGGAGTCACCTAGTGCAG”, 8550 fluorescence intensity (a.u.).
In the case of “CACCCTCTCCCGTGTTCCACCCCGCCCGCGAATCATATCCCGGAGTCACCTAGTGCAG” it was 9340 fluorescence intensity (a.u.); in that of “CACTAGCTACCTTGGTCAACCATGGCTGCAGCTTCACCTTCGGAGTCACCTAGTGCAG”, 8700 fluorescence intensity (a.u.).
For “AGTATAGAGGTGAGCAGGTCAGACGAAGTGTTGCTGATTTCGGAGTCACCTAGTGCAG”, the binding signal is 8380 fluorescence intensity (a.u.).
For “CTCCCCTTAGCTTAACACACCACACACACCCACACTGGCACGGAGTCACCTAGTGCAG” the value was 8150 fluorescence intensity (a.u.).
As for “ATGATTTGGCCCAAGAATCGCATCTCGTCGTGGATAAGACCGGAGTCACCTAGTGCAG”, the binding signal was 8270 fluorescence intensity (a.u.).
As to “CGTGTGCTGAAATTTGTTAGTTGTACTCTCTTGTTTGACTCGGAGTCACCTAGTGCAG”, the binding signal was 12700 fluorescence intensity (a.u.).
For the sequence “TCCACTCCCAGTCCAGGGTCAGAAGCTTGCTGTTGAATTCCGGAGTCACCTAGTGCAG”, the binding signal is 8520 fluorescence intensity (a.u.).
On to “CTACTTTTAACCATTTCAGTTATCTGTTTTTCTTTTCAATCGGAGTCACCTAGTGCAG”, for which the binding signal was 10500 fluorescence intensity (a.u.).
For “CTATGCCACTGACGTCACCTTTTCTATCCATCCTCTCCATCGGAGTCACCTAGTGCAG” the value was 13700 fluorescence intensity (a.u.); for “TGCTCGTTTTAATTCCTACTGCCCTCTTGCTGCTCACCAACGGAGTCACCTAGTGCAG”, 10500 fluorescence intensity (a.u.).
As to “GATCACCACCGCAATGGCTCGCCGCACCACGCGACTATTTCGGAGTCACCTAGTGCAG”, the binding signal is 8560 fluorescence intensity (a.u.).
As for “TCTTCTCTTCTTTGCCCTTGCGCCGCCTTCTCCGCGGCATCGGAGTCACCTAGTGCAG”, the binding signal is 11400 fluorescence intensity (a.u.).
For “GCATTTTGGTCTTTTATCACTCTCCTTAAATCCTTTATATCGGAGTCACCTAGTGCAG” the value was 12000 fluorescence intensity (a.u.); for “TTGGTCTCTCCTCGTCGCTGGGGTTCTTTGTTCTTGTAGTCGGAGTCACCTAGTGCAG”, 10000 fluorescence intensity (a.u.); for “TCTCACACACACACGCAAACACACAGCTTGGACCTTGGACCGGAGTCACCTAGTGCAG”, 9170 fluorescence intensity (a.u.).
As for “TTTCGTACCTGTAGCTTTATTACATCGCATTTCCTCTTATCGGAGTCACCTAGTGCAG”, the binding signal was 9120 fluorescence intensity (a.u.).
In the case of “ATATTGACCTGACGTTTTCTTTGGTGGTACACATATATTACGGAGTCACCTAGTGCAG”, the binding signal is 9430 fluorescence intensity (a.u.).
With “AGAATACCCCGCCTATAAATACACCTCTTCTGCTCATCTTCGGAGTCACCTAGTGCAG”, the binding signal was 8980 fluorescence intensity (a.u.).
Turning to “TTGTTGATGGTTGATCATTCCTTATGTTGACATGTTCATTCGGAGTCACCTAGTGCAG”, the binding signal is 8580 fluorescence intensity (a.u.).
For “AGTAGGGCACGCAGTTGATGGGGTATGATTACACATGTTTCGGAGTCACCTAGTGCAG”, the binding signal is 9590 fluorescence intensity (a.u.).
In the case of “ACCGCCTGCTTCTCGTCGCTCGTCCGCCATCACCGACCGCCGGAGTCACCTAGTGCAG” it was 15500 fluorescence intensity (a.u.).
As to “ACATTCTTCTCGCTTTCTCACGCCCTATATATACAAACAACGGAGTCACCTAGTGCAG”, the binding signal is 9390 fluorescence intensity (a.u.).
For “GCCGTCGCCTCGCGCCGCCACAGACGTCGCCGCCTCCGGCCGGAGTCACCTAGTGCAG”, the binding signal was 8140 fluorescence intensity (a.u.).
For the sequence “GTTAACACACGGTCAACCCATCATCTTCACACCTCTCAATCGGAGTCACCTAGTGCAG”, the binding signal was 10800 fluorescence intensity (a.u.).
Regarding “CAATTTCTCGTTCGCTCTCACGTGCGCGTCGCATCTCCCTCGGAGTCACCTAGTGCAG”, the binding signal is 9070 fluorescence intensity (a.u.).
